Drawing on publication PMC12418378, “Intrinsically disordered region of Clr4/Suv39 regulates its enzymatic activity and ensures heterochromatin spreading” (Nucleic Acids Research, 2025), this text covers binding for 1 substance.

Amino acid sequences for entries named in this document (tags omitted). A change or cut given only in a name is not applied to a line headed by its entry. Residues count along the entry.
UniProt O60016, residues 1-191: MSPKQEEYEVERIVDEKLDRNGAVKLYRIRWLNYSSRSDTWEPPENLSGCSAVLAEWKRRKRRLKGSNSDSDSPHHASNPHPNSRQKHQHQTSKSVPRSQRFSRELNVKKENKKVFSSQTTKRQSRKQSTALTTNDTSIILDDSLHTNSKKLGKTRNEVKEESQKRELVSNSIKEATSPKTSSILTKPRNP

The target of this experiment is GST-fused Clr4 N-terminus (GST-Clr4-N, amino acids 1-191) (S. pombe) (UniProt O60016). The experiment in a line: pull-down; GST-fused Clr4 (0.2 nmol) on Glutathione Magnetic Agarose Beads, 0.2 nmol MBP-fused Clr4 in 200 μl of 10 mM Tris-HCl pH 7.5, 150 mM NaCl, 0.1 mM EDTA, 0.1% Triton X-100, 4°C, 2 h; SDS-PAGE and CBB staining; also at 0 mM NaCl and with pericentromeric RNA added; both purified.

Results are given in words; binding and its absence hold for the method and conditions named. Binding calls can cover weak binding; strength is not graded here.

Take “MBP-Clr4-C with deletion of the central region of the ARL (Δ) (from UniProt O60016) (domain or fragment)”: the binding result was “binds”.
